The campaign covered roughly 330,000 compounds. About 7,700 (2.3%) were called active. Inconclusive results, whose numbers are uncertain, are shown with a selection of clear calls. Calls come from the whole dose curve; as a rule, active = well fitted inhibition curve with a large enough effect; inconclusive = small, poorly fitted or top-dose-only effect, or effect the other way; inactive = flat fitted curve, though single readings scatter. Potencies beside an inconclusive call are fits to weak or partial responses and may not hold up.
Assay: qHTS screen for small molecules that inhibit ELG1-dependent DNA repair in human embryonic kidney (HEK293T) cells expressing luciferase-tagged ELG1; note: nearly all actives have a fitted effect of over 55% in size
Conditions: HEK293T ELG1-luciferase reporter, luminescence, 16 h, DNA damage induced by 5-fluorouridine; activity change, negative = inhibition: at 46.1 µM (top of the series)
Outline: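 Cells (2,000 per well) received 5-fluorouridine plus test compound or DMSO and were incubated 16 hr at 37 °C, 5% CO2. Luciferase activity was read by luminescence 30 min after ONE-Glo addition; signal suppression marked inhibition of damage-induced ELG1 function.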
% is set by controls: 0 for no effect and ±100 for the full control effect; potency is the fitted concentration of half-maximal effect.

SMILES	Potency	activity change, negative = inhibition
Cc1cccc(NC(=S)NCC(C)CSc2ccc(Cl)cc2)c1 (stereo not drawn)	inconclusive: 25.9 µM [inhibitor, single point]	
COC(=O)c1cc2c(=O)c3ccccc3oc2nc1C	inconclusive: 4.61 µM [activator, partial curve]	
CN(Cc1ccccc1)C(=O)c1nc2ccccn2c1CN1CCCC1c1nccs1 (stereo not drawn)	inconclusive: 29.1 µM [inhibitor, partial curve, poor fit]	
Cc1cc(-c2cc(N)n(-c3ccccc3)n2)c(C)n1C1CCCC1	inconclusive: 8.91 µM [activator, partial curve]	
CCCCNC(=O)C1CCCN(S(=O)(=O)c2c(C)noc2/C=C/c2cccs2)C1 (stereo not drawn)	inconclusive: 29.1 µM [inhibitor, single point]	
O=C(NCC1COc2ccccc2O1)c1cccc(S(=O)(=O)N2CCOCC2)c1 (stereo not drawn)		inactive: -6.69%
O=C(Nc1ccc(N2CCN(c3ccccc3)CC2)c(F)c1)C1CC1		inactive: -8.8%
C[n+]1c2n(c3ccccc31)N=C(c1ccc(Cl)cc1)CS2	inconclusive: 29.1 µM [inhibitor, single point]	
Nc1ccccc1SC1CC(=O)N(c2ccc3c(c2)OCCO3)C1=O (stereo not drawn)	inconclusive: 18.3 µM [activator, partial curve]	
Cc1ccc(SCC(=O)OCC(=O)N(CC(C)C)c2c(N)n(Cc3ccccc3)c(=O)[nH]c2=O)c(C)c1		inactive: 6.88%
O=C(Nc1cccc(S(=O)(=O)N2CCCCC2)c1)c1ccc2c(=O)n3c(nc2c1)CCCCC3	active: 4.11 µM	
CCC(C)N(C(=O)COc1ccc(Cl)c2cccnc12)C1CCS(=O)(=O)C1 (stereo not drawn)		inactive: 21%
CC(C)(C)OC(=O)N1CCC(NC(=O)c2[nH]cnc2C(=O)Nc2ccon2)CC1	inconclusive: 29.1 µM [inhibitor, partial curve, poor fit]	
CCOC(=O)C1=CN(Cc2ccco2)S(=O)(=O)NC1c1ccc(Br)cc1F (stereo not drawn)		inactive: 1.47%
CCc1ccc(-c2csc3nc[nH]c(=O)c23)cc1	inconclusive: 6.51 µM [activator, partial curve, poor fit]	
O=C(CCl)Nc1cccc(Oc2cnccn2)c1	inconclusive: 23.1 µM [inhibitor, partial curve, poor fit]	
COc1ccc(NC(=O)Nc2ccc3nccnc3c2)cc1	inconclusive: 3.66 µM [activator, full curve]	
O=C(CCc1ccccc1)NCC(=O)N/N=C/c1ccc(O)cc1O	active: 8.2 µM	
Cc1c(OCC(=O)N(C)C)ccc2c(-c3ccccc3)cc(=O)oc12	inconclusive: 29.1 µM [inhibitor, single point]	
N#C/C(=C(/O)CCl)c1nc(-c2ccccc2)cs1	inconclusive: 16.4 µM [activator, partial curve]	
COc1ccc(NC(=O)CN(C)C(=O)CNC(=O)C2CCCCC2)cc1	inconclusive: 25.9 µM [activator, single point]	
CCCCCn1c(CCNC(=O)c2cccs2)nc2ccccc21	inconclusive: 20.6 µM [inhibitor, single point]	
Cc1ccc(S(=O)(=O)Nc2ccccc2C(=O)Nc2nc(-c3ccc(F)cc3)cs2)cc1	inconclusive: 5.8 µM [inhibitor, single point]	

SMILES	Potency	activity change, negative = inhibition
CC(C)C[C@H](NC(=O)c1[nH]cnc1C(=O)N[C@H](C)c1ccccc1)C(=O)OCc1ccccc1		inactive: 5.31%
COc1ccc(-c2noc(CSc3nc(-c4ccccc4)cc(=O)[nH]3)n2)cc1	inconclusive: 4.61 µM [inhibitor, single point]	
COc1ccc(C(=O)C2CCCN(Cc3ccc4nonc4c3)C2)cc1OC (stereo not drawn)	inconclusive: 29.1 µM [inhibitor, single point]	
CC[n+]1ccc(C)c2cc(SC(F)(F)F)ccc21	inconclusive: 23.1 µM [inhibitor, single point]	
CCCCc1ccc(Nc2ncccc2C#N)cc1	inconclusive: 29.1 µM [activator, single point]	
O=C(CCC1CCCC1)N1CCN(C(=O)C2CC2)CC1	inconclusive: 23.1 µM [activator, partial curve, poor fit]	
Cc1ccc(CNC(=O)C2CCN(c3nnc(N4CCCC4=O)s3)CC2)cc1		inactive: -0.732%
O=C(CSc1nc2ccccc2nc1N1CCCCC1)Nc1ccc(F)cc1	inconclusive: 14.6 µM [inhibitor, partial curve, poor fit]	
COc1cc(/C=N/NC(=O)C2(O)c3ccccc3-c3ccccc32)ccc1O	inconclusive: 23.1 µM [activator, partial curve, poor fit]	
CCCNc1nc2ccccc2c(=O)[nH]1		inactive: 4.41%
O=C(CSc1nc2nc3c(cc2c(=O)n1-c1ccccc1)CCCC3)Nc1ccccc1	inconclusive: 20.6 µM [inhibitor, single point]	
COc1ccc(NC(=O)C2CCCC2)cc1S(=O)(=O)N1CCOCC1		inactive: -0.601%
CCOC(=O)CSc1nc2ccccc2c(=O)n1NC(=O)c1ccccc1	inconclusive: 2.91 µM [activator, full curve]	
Cn1nccc1C(=O)OCC(=O)Nc1nc(-c2ccccc2)cs1	inconclusive: 20.6 µM [activator, single point]	
Cc1ccccc1Nc1cc(C(=O)NCc2ccco2)c2ccccc2n1	inconclusive: 16.4 µM [inhibitor, partial curve, poor fit]	
COc1ccc(C(=O)Nc2ccc(NC(=O)c3ccccc3OC)nc2)cc1	inconclusive: 29.1 µM [inhibitor, single point]	
C=CCn1c(SCC(=O)Nc2ccc(-c3nc4ccc(C)cc4s3)cc2)nnc1-c1ccccc1	inconclusive: 2.06 µM [activator, full curve]	
CC(C)N(CC(O)COc1ccc(CC(N)=O)cc1)CC(O)COc1ccc(CC(N)=O)cc1 (stereo not drawn)		inactive: -4.68%
COCCN(C(=O)c1ccco1)c1nnc(-c2ccc(OC)cc2)s1	inconclusive: 18.4 µM [activator, partial curve]	
CC(=O)c1ccc(NC(=S)Nc2cccc3cnccc23)cc1		inactive: -20.2%
O=C(CCc1ccccc1)Nc1ccc(Cl)cn1	inconclusive: 29.1 µM [activator, single point]	
COc1cccc(NC2=C(Cl)C(=O)OC2OC(=O)c2ccco2)c1 (stereo not drawn)		inactive: 15.7%
CCCOCc1ccc(O)c2ncccc12	active: 7.3 µM	

An excerpt of these results, as a markdown table.

| SMILES | Potency | activity change, negative = inhibition |
| --- | --- | --- |
| CC(C)C[C@H](NC(=O)c1[nH]cnc1C(=O)N[C@H](C)c1ccccc1)C(=O)OCc1ccccc1 |  | inactive: 5.31% |
| COc1ccc(C(=O)C2CCCN(Cc3ccc4nonc4c3)C2)cc1OC (stereo not drawn) | inconclusive: 29.1 µM [inhibitor, single point] |  |
| Cc1ccccc1Nc1cc(C(=O)NCc2ccco2)c2ccccc2n1 | inconclusive: 16.4 µM [inhibitor, partial curve, poor fit] |  |
| CC(C)N(CC(O)COc1ccc(CC(N)=O)cc1)CC(O)COc1ccc(CC(N)=O)cc1 (stereo not drawn) |  | inactive: -4.68% |

Next records:

SMILES	Potency	activity change, negative = inhibition
COc1cc(CN2CCCCC2C(=O)Nc2ccc(Oc3ccccc3)nc2)ccc1O (stereo not drawn)	inconclusive: 18.3 µM [activator, partial curve, poor fit]	
CN1C(=O)CSc2ccc(NC(=O)NCCC3=CCCCC3)cc21	inconclusive: 20.6 µM [inhibitor, partial curve, poor fit]	
CC1CCCC(C)N1CC(O)COC1CCC(C(C)(C)C)CC1 (stereo not drawn)	inconclusive: 4.61 µM [inhibitor, partial curve, poor fit]	
CCC(=O)N(CCC(c1ccc(C)cc1)c1ccco1)Cc1ccco1 (stereo not drawn)		inactive: 3.02%
Cc1ccc(C(=O)NNC(=O)C2CSC3(C)CCC(=O)N23)cc1 (stereo not drawn)	inconclusive: 23.1 µM [activator, single point]	
O=c1c2c([nH]c3ccccc13)CCCC2		inactive: -2.88%
COc1ccc2c(c1OC)C(=O)OC2n1c(O)c(N=NC(C)=O)c2ccccc21 (stereo not drawn)		inactive: -1.69%
Cc1ccc(Cl)cc1-c1ccc(C=Nc2ccc(N3CCOCC3)cc2)o1	inconclusive: 4.61 µM [inhibitor, partial curve]	
COCCSc1nnc(NC(=O)c2ccco2)s1	inconclusive: 18.3 µM [activator, partial curve]	
O=C(COC(=O)c1cccnc1Cl)Nc1nc(-c2ccccc2)cs1	inconclusive: 20.6 µM [activator, single point]	
CCc1nnc(NC(=O)CSc2ccc(-c3ccccc3OC)nn2)s1	inconclusive: 1.16 µM [inhibitor, single point]	
CC(C)CC(=O)Nc1cccc2c1C(=O)N(c1ccccc1)C2=O		inactive: -3.5%
COc1ccc(C(=O)CN2CCN(c3cc(C)nc4ccccc34)CC2)cc1	active: 8.2 µM	
Nc1nc(OCC2CCCCC2)c2[nH]cnc2n1	inconclusive: 2.06 µM [activator, partial curve, poor fit]	
CCN(C(=O)CN1C(=O)NC2(CCc3ccccc32)C1=O)C1CCS(=O)(=O)C1 (stereo not drawn)	inconclusive: 6.31 µM [activator, partial curve, poor fit]	
COc1ccc(-c2c(C#N)c(SCC(=O)c3cc4ccccc4oc3=O)nc(C)c2C(=O)Nc2ccccc2)cc1	inconclusive: 25.9 µM [inhibitor, partial curve]	
O=C(Nc1cc([N+](=O)[O-])ccc1C(=O)Nc1cccnc1)c1ccccc1		inactive: 0.923%
COc1ccc(CCN(C)C(=O)COC(=O)/C=C/c2ccc(C)o2)cc1OC	inconclusive: 29.1 µM [inhibitor, partial curve, poor fit]	
Cc1ccc(CN(C(=O)c2ccc(Cl)c([N+](=O)[O-])c2)C2CCS(=O)(=O)C2)o1 (stereo not drawn)	inconclusive: 18.3 µM [activator, single point]	
Cc1cc(OCC(=O)Nc2ccc(N3CCN(C(=O)c4ccco4)CC3)cc2)cc(C)c1Cl	inconclusive: 1.46 µM [inhibitor, full curve]	
COc1cccc(N2C(=O)C3CCCN3C2c2cccs2)c1 (stereo not drawn)	inconclusive: 2.06 µM [activator, partial curve, poor fit]	
CCOC(=O)N1CCC(NC(=O)C(CC(C)C)NC(=O)C2CCC(C)CC2)CC1 (stereo not drawn)	inconclusive: 0.0052 µM [activator, full curve, poor fit]	
